# Measurements published in the supplement of paper PMC6411743.
# ± gives the standard deviation of the averaged measurements. The entries are a selection whose mix differs from that of the whole data set. Most entries show no effect beyond the scatter of the controls.
# Target: T1, UniProt Q8N0U8 and related entries
# T1 sequence (whole entry): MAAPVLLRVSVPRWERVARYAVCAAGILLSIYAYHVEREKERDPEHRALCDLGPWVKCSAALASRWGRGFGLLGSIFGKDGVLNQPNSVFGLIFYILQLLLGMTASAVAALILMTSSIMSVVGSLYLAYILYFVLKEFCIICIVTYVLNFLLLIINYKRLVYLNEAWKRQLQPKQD
# Assay: NP40-soluble protein abundance relative to vehicle (solubility fold change) (ratio); higher = more soluble protein in presence of ATP
# How it was run: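 Crude Jurkat lysate, prepared by Dounce homogenisation, was exposed to eight concentrations from 0.1 to 10 mM for 10 min at room temperature and then 3 min at 37 °C. Solubilisation used 0.8% NP40 with benzonase for 60 min at 4 °C, followed by ultracentrifugation and TMT labelling of the supernatant for LC-MS/MS. After vsn normalisation of intensities, each value is the fold change against the detergent-processed vehicle within each replicate, across three independent experiments.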
compound,measurement,setting,value
Nc1ncnc2c1ncn2[C@@H]1O[C@H](COP(=O)(O)OP(=O)(O)OP(=O)(O)O)[C@@H](O)[C@H]1O [adenosine triphosphate],NP40-soluble protein abundance,concentration: 0.1mM,0.981 ± 0.12
same,NP40-soluble protein abundance,concentration: 0.5mM,0.929 ± 0.085
